Measured values: paper PMC8894474

Target: GFP-epitope tagged BIN1V9 (non-neuronal isoform of Bridging integrator 1)
Assay: co-IP; cells expressing BIN1V1GFP or BIN1V9GFP without or with RIN3flag; immunoprecipitation with anti-GFP antibody, immunoblot with anti-BIN1 and anti-RIN3

B1: flag-epitope tagged RIN3 (Ras and Rab interactor 3) (protein, UniProt Q8TB24 1-985)
chain: MIRHAGAPARGDPTGPVPVVGKGEEEEEEDGMRLCLPANPKNCLPHRRGISILEKLIKTCPVWLQLSLGQAEVARILHRVVAGMFLVRRDSSSKQLVLCVHFPSLNESSAEVLEYTIKEEKSILYLEGSALVFEDIFRLIAFYCVSRDLLPFTLRLPQAILEASSFTDLETIANLGLGFWDSSLNPPQERGKPAEPPRDRAPGFPLVSSLRPTAHDANCACEIELSVGNDRLWFVNPIFIEDCSSALPTDQPPLGNCPARPLPPTSDATSPTSRWAPRRPPPPPPVLPLQPCSPAQPPVLPALAPAPACPLPTSPPVPAPHVTPHAPGPPDHPNQPPMMTCERLPCPTAGLGPLREEAMKPGAASSPLQQVPAPPLPAKKNLPTAPPRRRVSERVSLEDQSPGMAAEGDQLSLPPQGTSDGPEDTPRESTEQGQDTEVKASDPHSMPELPRTAKQPPVPPPRKKRISRQLASTLPAPLENAELCTQAMALETPTPGPPREGQSPASQAGTQHPPAQATAHSQSSPEFKGSLASLSDSLGVSVMATDQDSYSTSSTEEELEQFSSPSVKKKPSMILGKARHRLSFASFSSMFHAFLSNNRKLYKKVVELAQDKGSYFGSLVQDYKVYSLEMMARQTSSTEMLQEIRTMMTQLKSYLLQSTELKALVDPALHSEEELEAIVESALYKCVLKPLKEAINSCLHQIHSKDGSLQQLKENQLVILATTTTDLGVTTSVPEVPMMEKILQKFTSMHKAYSPEKKISILLKTCKLIYDSMALGNPGKPYGADDFLPVLMYVLARSNLTEMLLNVEYMMELMDPALQLGEGSYYLTTTYGALEHIKSYDKITVTRQLSVEVQDSIHRWERRRTLNKARASRSSVQDFICVSYLEPEQQARTLASRADTQAQALCAQCAEKFAVERPQAHRLFVLVDGRCFQLADDALPHCIKGYLLRSEPKRDFHFVYRPLDGGGGGGGGSPPCLVVREPNFL
Q: For B1, which binding is on record?
A: binds

No constants are given. Whether binding was seen depends on the method and setting. Binding seen in cells or lysates may run through a third protein. A result given as binding can be weak or reduced; the word gives no strength. Sequences can lack the tags named with a protein.
